{"source": "paper PMC11589570", "about": "“Critical assessment of LC3/GABARAP ligands used for degrader development and ligandability of LC3/GABARAP binding pockets” (Nature Communications, 2024)", "test_system": "U2OS cells", "assay": "Cell growth assay (IncuCyte confluence over 72 h)", "assay_type": "cell-based", "set-up": "key: % of well area covered by cells (confluence)", "conditions": "listed as 8F20", "method_in_brief": "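U2OS cells were grown in DMEM with 10% FBS for 24 h before treatment. Confluence was then tracked by IncuCyte phase imaging over 72 h and expressed as % of well area covered by cells. Each point is the average of three wells.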", "note": "Values joined by “and” are separate entries in the source; they are usually repeats but may differ in a detail not shown here. Identical values can stand only once. Further values from the same series stand in other lists.", "data": [{"smiles": "Cc1ccc(C(=O)N(CCCN)[C@@H](c2nc3cc(Cl)ccc3c(=O)n2Cc2ccccc2)C(C)C)cc1", "note": "[compound 3, (R)-N-(3-aminopropyl)-N-(1-(3-benzyl-7-chloro-4-oxo-3,4-dihydroquinazolin-2-yl)−2-methylpropyl)−4-methylbenzamide]", "values": [{"measurement": "U2OS cell growth", "setting": "100 nM, time 0 h", "value": "18.0255 and 19.691 and 18.4435"}, {"measurement": "U2OS cell growth", "setting": "100 nM, time 2 h", "value": "24.1043 and 26.9452 and 25.7455"}, {"measurement": "U2OS cell growth", "setting": "100 nM, time 4 h", "value": "21.4028 and 24.7641 and 21.3414"}, {"measurement": "U2OS cell growth", "setting": "100 nM, time 6 h", "value": "24.2787 and 24.4992 and 24.4953"}, {"measurement": "U2OS cell growth", "setting": "100 nM, time 12 h", "value": "22.7099 and 20.7666 and 25.7013"}, {"measurement": "U2OS cell growth", "setting": "100 nM, time 14 h", "value": "23.1025 and 20.7978 and 25.9462"}, {"measurement": "U2OS cell growth", "setting": "100 nM, time 16 h", "value": "21.7872 and 19.9875 and 26.7142"}, {"measurement": "U2OS cell growth", "setting": "100 nM, time 18 h", "value": "24.0118 and 18.9125 and 30.747"}, {"measurement": "U2OS cell growth", "setting": "100 nM, time 20 h", "value": "22.0141 and 18.4921 and 24.654"}, {"measurement": "U2OS cell growth", "setting": "100 nM, time 22 h", "value": "21.0436 and 16.4828 and 22.1426"}, {"measurement": "U2OS cell growth", "setting": "100 nM, time 24 h", "value": "19.22 and 18.0764 and 22.1209"}, {"measurement": "U2OS cell growth", "setting": "100 nM, time 26 h", "value": "21.5351 and 18.5507 and 21.8086"}, {"measurement": "U2OS cell growth", "setting": "100 nM, time 28 h", "value": "21.9225 and 20.0634 and 21.6973"}, {"measurement": "U2OS cell growth", "setting": "100 nM, time 30 h", "value": "21.0089 and 19.681 and 22.6641"}, {"measurement": "U2OS cell growth", "setting": "100 nM, time 32 h", "value": "22.9178 and 20.8483 and 25.4586"}, {"measurement": "U2OS cell growth", "setting": "100 nM, time 48 h", "value": "32.126 and 29.4283 and 35.5759"}, {"measurement": "U2OS cell growth", "setting": "100 nM, time 50 h", "value": "31.3724 and 30.2183 and 32.922"}, {"measurement": "U2OS cell growth", "setting": "100 nM, time 52 h", "value": "32.7838 and 31.9468 and 32.3438"}, {"measurement": "U2OS cell growth", "setting": "100 nM, time 54 h", "value": "30.2864 and 27.1369 and 34.8183"}, {"measurement": "U2OS cell growth", "setting": "100 nM, time 56 h", "value": "34.5771 and 31.591 and 35.5871"}, {"measurement": "U2OS cell growth", "setting": "100 nM, time 58 h", "value": "37.6939 and 37.2505 and 38.0323"}, {"measurement": "U2OS cell growth", "setting": "100 nM, time 60 h", "value": "47.6851 and 48.3681 and 56.4168"}, {"measurement": "U2OS cell growth", "setting": "100 nM, time 62 h", "value": "35.4962 and 41.6208 and 40.3505"}, {"measurement": "U2OS cell growth", "setting": "100 nM, time 64 h", "value": "37.9852 and 37.0606 and 36.9349"}, {"measurement": "U2OS cell growth", "setting": "100 nM, time 66 h", "value": "35.0116 and 35.9266 and 35.1875"}, {"measurement": "U2OS cell growth", "setting": "100 nM, time 68 h", "value": "38.4914 and 33.3062 and 36.9128"}, {"measurement": "U2OS cell growth", "setting": "100 nM, time 70 h", "value": "40.9151 and 36.2966 and 42.793"}, {"measurement": "U2OS cell growth", "setting": "100 nM, time 72 h", "value": "39.0452 and 35.0035 and 40.581"}, {"measurement": "U2OS cell growth", "setting": "500 nM, time 0 h", "value": "24.9027 and 30.3112 and 23.4178"}, {"measurement": "U2OS cell growth", "setting": "500 nM, time 2 h", "value": "27.1071 and 34.0249 and 28.9277"}, {"measurement": "U2OS cell growth", "setting": "500 nM, time 4 h", "value": "26.3563 and 31.6087 and 27.5504"}, {"measurement": "U2OS cell growth", "setting": "500 nM, time 6 h", "value": "25.1739 and 33.3568 and 29.1534"}, {"measurement": "U2OS cell growth", "setting": "500 nM, time 8 h", "value": "29.7636 and 27.4625 and 28.9461"}, {"measurement": "U2OS cell growth", "setting": "500 nM, time 10 h", "value": "32.8557 and 33.1701 and 34.3828"}, {"measurement": "U2OS cell growth", "setting": "500 nM, time 12 h", "value": "30.8833 and 31.8525 and 33.3299"}, {"measurement": "U2OS cell growth", "setting": "500 nM, time 14 h", "value": "28.9221 and 28.9166 and 31.9426"}, {"measurement": "U2OS cell growth", "setting": "500 nM, time 16 h", "value": "31.0913 and 28.7443 and 27.7174"}, {"measurement": "U2OS cell growth", "setting": "500 nM, time 18 h", "value": "26.4683 and 26.5812 and 25.756"}, {"measurement": "U2OS cell growth", "setting": "500 nM, time 20 h", "value": "31.6066 and 25.7677 and 28.3835"}, {"measurement": "U2OS cell growth", "setting": "500 nM, time 22 h", "value": "23.7757 and 25.1448 and 24.3237"}, {"measurement": "U2OS cell growth", "setting": "500 nM, time 24 h", "value": "23.9838 and 24.3114 and 24.0817"}, {"measurement": "U2OS cell growth", "setting": "500 nM, time 26 h", "value": "24.315 and 23.8237 and 23.1959"}, {"measurement": "U2OS cell growth", "setting": "500 nM, time 28 h", "value": "25.7796 and 27.7775 and 23.8045"}, {"measurement": "U2OS cell growth", "setting": "500 nM, time 30 h", "value": "23.1662 and 25.2785 and 25.0342"}, {"measurement": "U2OS cell growth", "setting": "500 nM, time 32 h", "value": "28.8463 and 30.8267 and 27.0245"}, {"measurement": "U2OS cell growth", "setting": "500 nM, time 46 h", "value": "38.2103 and 35.4684 and 34.5564"}, {"measurement": "U2OS cell growth", "setting": "500 nM, time 48 h", "value": "38.7923 and 42.0746 and 37.7481"}, {"measurement": "U2OS cell growth", "setting": "500 nM, time 50 h", "value": "35.7787 and 37.4828 and 37.4481"}, {"measurement": "U2OS cell growth", "setting": "500 nM, time 52 h", "value": "42.5443 and 47.4299 and 40.0477"}, {"measurement": "U2OS cell growth", "setting": "500 nM, time 54 h", "value": "35.6733 and 42.667 and 35.3607"}, {"measurement": "U2OS cell growth", "setting": "500 nM, time 56 h", "value": "43.0215 and 45.5232 and 43.9415"}, {"measurement": "U2OS cell growth", "setting": "500 nM, time 58 h", "value": "34.8748 and 46.6281 and 38.629"}, {"measurement": "U2OS cell growth", "setting": "500 nM, time 60 h", "value": "50.2082 and 51.0815 and 48.2963"}, {"measurement": "U2OS cell growth", "setting": "500 nM, time 62 h", "value": "48.2613 and 50.3061 and 44.4074"}, {"measurement": "U2OS cell growth", "setting": "500 nM, time 64 h", "value": "47.3827 and 47.4586 and 39.9365"}, {"measurement": "U2OS cell growth", "setting": "500 nM, time 66 h", "value": "43.074 and 44.7402 and 43.409"}, {"measurement": "U2OS cell growth", "setting": "500 nM, time 68 h", "value": "48.2467 and 46.3511 and 41.002"}, {"measurement": "U2OS cell growth", "setting": "500 nM, time 70 h", "value": "45.2225 and 49.1755 and 44.6094"}, {"measurement": "U2OS cell growth", "setting": "500 nM, time 72 h", "value": "40.2655 and 44.8363 and 51.0141"}, {"measurement": "U2OS cell growth", "setting": "1 uM, time 0 h", "value": "41.1183 and 35.5573 and 30.995"}, {"measurement": "U2OS cell growth", "setting": "1 uM, time 2 h", "value": "43.2651 and 37.7639 and 33.8573"}, {"measurement": "U2OS cell growth", "setting": "1 uM, time 4 h", "value": "39.0854 and 35.7076 and 33.0202"}, {"measurement": "U2OS cell growth", "setting": "1 uM, time 6 h", "value": "40.2992 and 37.2216 and 34.4466"}, {"measurement": "U2OS cell growth", "setting": "1 uM, time 8 h", "value": "37.3173 and 33.5515 and 32.4428"}, {"measurement": "U2OS cell growth", "setting": "1 uM, time 10 h", "value": "42.1549 and 38.9801 and 35.6018"}, {"measurement": "U2OS cell growth", "setting": "1 uM, time 12 h", "value": "39.3051 and 36.2596 and 32.5132"}, {"measurement": "U2OS cell growth", "setting": "1 uM, time 14 h", "value": "34.7349 and 33.4721 and 28.9114"}, {"measurement": "U2OS cell growth", "setting": "1 uM, time 16 h", "value": "36.5609 and 31.3223 and 29.4847"}, {"measurement": "U2OS cell growth", "setting": "1 uM, time 18 h", "value": "30.4572 and 28.8567 and 24.9221"}, {"measurement": "U2OS cell growth", "setting": "1 uM, time 20 h", "value": "27.7801 and 25.9127 and 22.6116"}, {"measurement": "U2OS cell growth", "setting": "1 uM, time 22 h", "value": "27.4605 and 26.4625 and 22.8788"}, {"measurement": "U2OS cell growth", "setting": "1 uM, time 24 h", "value": "25.2331 and 26.8925 and 22.6855"}, {"measurement": "U2OS cell growth", "setting": "1 uM, time 26 h", "value": "27.7636 and 30.4091 and 24.3243"}, {"measurement": "U2OS cell growth", "setting": "1 uM, time 28 h", "value": "28.5929 and 30.5423 and 24.5698"}, {"measurement": "U2OS cell growth", "setting": "1 uM, time 30 h", "value": "27.8104 and 30.6117 and 25.8499"}, {"measurement": "U2OS cell growth", "setting": "1 uM, time 32 h", "value": "32.6672 and 34.9619 and 29.1111"}, {"measurement": "U2OS cell growth", "setting": "1 uM, time 46 h", "value": "39.1313 and 35.6705"}, {"measurement": "U2OS cell growth", "setting": "1 uM, time 48 h", "value": "41.8136 and 49.2214 and 40.9152"}, {"measurement": "U2OS cell growth", "setting": "1 uM, time 50 h", "value": "41.5178 and 43.3812 and 36.8309"}]}]}
